Laboratory results as given in patent US11912787B2 (DERMAFIRM, INC., priority 2019, dated 2024).

Assay: general procedure: Fmoc solid-phase peptide synthesis; 2-chlorotrityl chloride resin (BeadTech, 1% DVB crosslinked, 100 to 200 mesh, 1.41 mmol/g)
Conditions: whole synthesis; for final HPLC purity / isolated yield: scale of the general procedure 10 mmol

Substance | isolated mass [g] | final HPLC purity [%] | isolated yield [%]
H-ArgArgArgArg-OH | 1.7 | 99.1 | 26.6
PEPTIDE1{G.H.K.R.R.R.R}$$$$V2.0 | 3.6 | 99.2 | 37.3
PEPTIDE1{[Pal].G.H.K.R.R.R.R}$$$$V2.0 | 3.4 | 99.5 | 28.2

Some peptides are written in HELM: one residue between dots, names in brackets for other building blocks, links after the first $.
